Data from PubChem BioAssay AID190 (DTP/NCI, 2004).
The list is a part of this screen's results and no random one: it gathers tests that were run many times, whatever their T/C, doses with no T/C, and many T/C values between a quarter and a half above the control. Further doses and runs are listed elsewhere. T/C is the treated group as % of the vehicle group. Some entries give survivors of the animals treated and no T/C: the source files T/C as zero there, which appears to mark a toxic dose or a test without result, not a measured value. Some doses without a T/C left all or most animals alive at the check, yet need not have been tolerated: survival well below the control is almost never listed, so the zero probably covers shortened survival too. Counts of survivors are from the toxicity check (mostly the fifth day) where no day follows; animals may have died later. Schedules are NCI's codes, read here as Q, the interval in days (D) or hours (H), X, the number of doses. For survival time, this PubChem deposit counts one and a half times the control or more as active, and values a quarter to a half above the control carry no call in these data; other NCI protocols may use other cut-offs. Some T/C values are followed by the survivors on the day toxicity was checked, most often the fifth; without a count, all were alive then. Some entries hold several experiments; the values are given in rising order. Brackets with × stand for listed records that agree.

Tested on: AKR/Lw mice, AKR lymphoma ip, median survival T/C
Assay: NCI In Vivo Anticancer Drug Screen. Data for tumor model Lymphoma AKR (Transplanted) (intraperitoneal) in AKR/Lw mice
Conditions: T/C endpoint: median survival time, higher T/C = longer survival
Procedure: The antitumor activity of compounds was measured in mice bearing transplantable tumors. Survival or tumor size were measured and the results are expressed as the measurement made in the treated group (T) divided by the measurement made in the vehicle treated control group (C). The tumor model used in this assay is Lymphoma AKR (Transplanted) (intraperitoneal) in AKR/Lw mice

## COc1cc([C@@H]2c3cc4c(cc3C[C@H]3COC(=O)[C@@H]32)OCO4)cc(OC)c1OC
dose: 10.0 mg/kg/injection, schedule: Q01DX009 (ip), vehicle: Klucel (hydroxypropylcellulose) (HPC)
  survivor count: 7 of 10
dose: 20.0 mg/kg/injection, schedule: Q01DX009 (ip), vehicle: Klucel (hydroxypropylcellulose) (HPC)
  survivor count: 5 of 10
dose: 40.0 mg/kg/injection, schedule: Q01DX009 (ip), vehicle: Klucel (hydroxypropylcellulose) (HPC)
  survivor count: 1 of 10

## C/C=C(/Cl)c1c(C)cc(C)c(CC(=O)O)c1C
dose: 100.0 mg/kg/injection, schedule: Q01DX001 (ip), vehicle: Klucel (hydroxypropylcellulose) (HPC)
  survivor count: 8 of 10

## S=c1nc[nH]c2nc[nH]c12
dose: 50.0 mg/kg/injection, schedule: Q01DX001 (ip), vehicle: Klucel (hydroxypropylcellulose) (HPC)
  survivor count: 9 of 10
dose: 65.0 mg/kg/injection, schedule: Q04DX003 (ip), vehicle: Klucel (hydroxypropylcellulose) (HPC)
  survivor count: 10 of 10
dose: 75.0 mg/kg/injection, schedule: Q01DX009 (ip), vehicle: saline
  survivor count: 10 of 10
dose: 100.0 mg/kg/injection, schedule: Q01DX009 (ip), vehicle: saline
  T/C: 130 % of control
dose: 100.0 mg/kg/injection, schedule: Q01DX015 (ip), vehicle: Klucel (hydroxypropylcellulose) (HPC)
  survivor count: 9 of 10
dose: 120.0 mg/kg/injection, schedule: Q01DX009 (ip), vehicle: saline
  survivor count: 10 of 10
dose: 125.0 mg/kg/injection, schedule: Q04DX003 (ip), vehicle: Klucel (hydroxypropylcellulose) (HPC)
  survivor count: 10 of 10
dose: 135.0 mg/kg/injection, schedule: Q04DX003 (ip), vehicle: Klucel (hydroxypropylcellulose) (HPC)
  survivor count: 10 of 10
dose: 150.0 mg/kg/injection, schedule: Q01DX001 (ip), vehicle: Klucel (hydroxypropylcellulose) (HPC)
  survivor count: 10 of 10
dose: 150.0 mg/kg/injection, schedule: Q01DX001 (ip), vehicle: saline
  T/C: 128 % of control
dose: 150.0 mg/kg/injection, schedule: Q01DX009 (ip), vehicle: saline
  survivor count: 9 of 10
dose: 150.0 mg/kg/injection, schedule: Q04DX003 (ip), vehicle: Klucel (hydroxypropylcellulose) (HPC)
  survivor count: 10 of 10
dose: 175.0 mg/kg/injection, schedule: Q01DX001 (ip), vehicle: Klucel (hydroxypropylcellulose) (HPC)
  survivor count: 9 of 10
dose: 200.0 mg/kg/injection, schedule: Q01DX001 (ip), vehicle: Klucel (hydroxypropylcellulose) (HPC)
  T/C: 94, 94 [8 of 10 alive], 118 % of control (2×)
dose: 200.0 mg/kg/injection, schedule: Q01DX009 (ip), vehicle: Klucel (hydroxypropylcellulose) (HPC)
  survivor count: 8 of 10
dose: 200.0 mg/kg/injection, schedule: Q01DX015 (ip), vehicle: Klucel (hydroxypropylcellulose) (HPC)
  survivor count: 5 of 10
dose: 200.0 mg/kg/injection, schedule: Q04DX003 (ip), vehicle: Klucel (hydroxypropylcellulose) (HPC)
  survivor count: 10 of 10
dose: 200.0 mg/kg/injection, schedule: Q04DX003 (ip), vehicle: saline
  survivor count: 10 of 10
dose: 300.0 mg/kg/injection, schedule: Q01DX001 (ip), vehicle: Klucel (hydroxypropylcellulose) (HPC)
  survivor count: 10 of 10
dose: 300.0 mg/kg/injection, schedule: Q01DX001 (ip), vehicle: saline
  survivor count: 10 of 10
dose: 400.0 mg/kg/injection, schedule: Q01DX001 (ip), vehicle: Klucel (hydroxypropylcellulose) (HPC)
  survivor count: 9 of 10
dose: 400.0 mg/kg/injection, schedule: Q01DX015 (ip), vehicle: Klucel (hydroxypropylcellulose) (HPC)
  survivor count: 10 of 10
dose: 400.0 mg/kg/injection, schedule: Q04DX003 (ip), vehicle: Klucel (hydroxypropylcellulose) (HPC)
  survivor count: 8 of 10
